For 2 substances, binding results are on record in paper PMC11786360.

Amino acid sequences for entries named in this document (tags omitted).
UniProt P45974: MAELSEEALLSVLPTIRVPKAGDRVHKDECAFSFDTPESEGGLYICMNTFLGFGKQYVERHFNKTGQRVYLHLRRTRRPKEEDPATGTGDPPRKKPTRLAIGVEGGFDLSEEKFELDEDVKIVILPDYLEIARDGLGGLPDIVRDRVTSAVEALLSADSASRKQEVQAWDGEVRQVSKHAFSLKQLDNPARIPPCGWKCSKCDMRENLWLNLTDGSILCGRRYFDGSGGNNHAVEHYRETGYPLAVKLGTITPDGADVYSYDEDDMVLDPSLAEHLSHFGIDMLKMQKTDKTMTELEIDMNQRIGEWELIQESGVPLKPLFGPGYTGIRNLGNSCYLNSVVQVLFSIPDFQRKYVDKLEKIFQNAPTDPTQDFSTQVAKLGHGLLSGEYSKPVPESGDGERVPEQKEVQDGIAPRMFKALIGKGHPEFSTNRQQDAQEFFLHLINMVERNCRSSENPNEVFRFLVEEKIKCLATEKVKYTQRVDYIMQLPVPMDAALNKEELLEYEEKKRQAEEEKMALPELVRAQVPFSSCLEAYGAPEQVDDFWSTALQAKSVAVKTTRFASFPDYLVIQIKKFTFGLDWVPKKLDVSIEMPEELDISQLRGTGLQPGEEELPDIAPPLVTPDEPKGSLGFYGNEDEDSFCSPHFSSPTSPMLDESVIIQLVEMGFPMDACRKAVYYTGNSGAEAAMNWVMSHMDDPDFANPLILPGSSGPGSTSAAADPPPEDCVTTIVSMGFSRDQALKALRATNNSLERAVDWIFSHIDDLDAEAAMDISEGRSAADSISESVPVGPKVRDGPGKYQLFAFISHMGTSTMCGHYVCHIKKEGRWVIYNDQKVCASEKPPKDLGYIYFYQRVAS

The target in assay [1] is T1, low-density lipoprotein receptor-related protein 11 (LRP11), endogenous (human (endogenous in Hep3B)) (UniProt Q86VZ4).
T1 sequence: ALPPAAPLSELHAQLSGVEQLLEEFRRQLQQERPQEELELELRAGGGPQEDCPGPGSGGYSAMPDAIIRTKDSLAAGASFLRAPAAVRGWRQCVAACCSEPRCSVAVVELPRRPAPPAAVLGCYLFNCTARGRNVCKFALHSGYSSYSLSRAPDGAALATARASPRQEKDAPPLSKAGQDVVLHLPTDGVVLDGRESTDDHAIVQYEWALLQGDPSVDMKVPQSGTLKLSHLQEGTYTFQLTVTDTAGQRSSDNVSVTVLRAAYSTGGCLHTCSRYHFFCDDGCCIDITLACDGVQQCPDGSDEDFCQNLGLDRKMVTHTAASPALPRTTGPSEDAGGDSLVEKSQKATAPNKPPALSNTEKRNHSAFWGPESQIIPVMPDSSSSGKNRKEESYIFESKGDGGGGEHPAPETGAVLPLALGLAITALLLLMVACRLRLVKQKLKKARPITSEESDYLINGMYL
The assay is described as follows: co-IP; endogenous proteins, Hep3B cells in RIPA lysis buffer; primary antibody or IgG 4 °C 24 h, protein A and G agarose beads 3 h, five washes with PBS, Western blot; USP5-RACK1 also tested in LRP11 knock-down and LRP11-overexpressing cells. A general note: In western blotting, separated proteins are transferred to a membrane and probed.

The next assay addresses T2, His-LRP11 (UniProt Q86VZ4).
T2 sequence: T1 sequence
Put plainly: co-IP; exogenous proteins, HEK293T cells transfected with His-LRP11, Flag-RACK1 and HA-USP5, RIPA lysis buffer; tag antibodies or IgG 4 °C 24 h, protein A and G agarose beads, five washes with PBS, Western blot.

These are yes or no findings as the source states them, for the method shown. Binding seen in cells or lysates may run through a third protein. Some entries that bind do so weakly or less than the wild type. For some assays here: Sequences can lack the tags named with a protein.

On to “Ubiquitin specific peptidase 5 (USP5), endogenous (from UniProt P45974 1-858) (enzyme)”, for which, in assay [1], the binding result is on record as “binds”.

As to “HA-USP5 (from UniProt P45974 1-858) (enzyme)”, the binding entry with His-LRP11 is “binds”.
